Test results from US7470669B2, “Isolated polypeptide comprising a leptin fragment” (Serono Genetics Institute, S.A., priority 1999, dated 2008).
Some of these results come from one statement about several compounds together.

System: LSR
Test: BUD assay of 125I-LDL in PLC cells transfected with truncated human LSR
Assay type: cell-based
Details: corrected for transfection efficiency using β-Gal reporter
Description: Method of Cloning & Testing. • 1. Digest Human LSR plasmids with enzymes of interest under appropriate conditions. Separate the appropriate insert fragment from the vector using agarose gel electrophoresis and Qiaquick gel extraction columns. Note: For constructs 1, 2, 3, 4a, 5, and 6 pTracerCMV2 LSR α was used as the source for the insert. For construct 4b, pTracerCMV2 LSR α′ was used as the source for the insert. For 4c, pTracerCMV2 LSR β was used as the source for the insert. • 2. Digest the pcDNA/HisMax vector in the appropriate reading frame with the enzymes of interest. Purify using agarose gel electrophoresis and Qiaquick gel extraction columns. • 3. If necessary, treat insert fragments with Klenow DNA polymerase or T4 DNA polymerase I to blunt 3′ overhangs. […] Verify correct clones by having them sequenced to ensure that they are in the proper reading frame and that there are no amino acid changes. • 8. […]
BUD Assay Methods: • 1. […] Remove suramin into gamma counter tubes, and count for radioactivity. […] Recover the cell lysates into gamma counter tubes and count for radioactivity. […] After cell lysates have been counted, determine the protein concentration per mL so that data can be reported as ng ^125I-LDL bound/mg of total protein. Protein is determined using the BCA assay from Pierce according to the manufacturer's instructions. […]

B1: C-terminal portion from AA 353 to 541: truncated human LSR construct, AA 353 to 541 (protein, UniProt Q86X29 353-541, looked up, fragment)
chain: PGGYPGDVDRSSSAGGQGSYVPLLRDTDSSVASEVRSGYRIQASQQDDSMRVLYYMEKELANFDPSRPGPPSGRVERAMSEVTSLHEDDWRSRPSRGPALTPIRDEEWGGHSPRSPRGWDQEPAREQAGGGWRARRPRARSVDALDDLTPPSTAESGSRSPTSNGGRSRAYMPPRSRSRDDLYDQDDSR
  increase of binding, uptake and degradation of 125I-labelled LDL (all 3 measurements): 2-3 fold
